Results from US20090175882A1, “METHODS AND COMPOSITIONS FOR TREATING HYPERALGESIA” (IRM LLC, priority 2006, published 2009).
At least one structure is not confirmed: it was looked up by name or label, or the drawing left a doubt. No end group written: not given here.

The chains behind the UniProt entries cited, without tags or fusion partners.
UniProt Q8BLA8, whole entry: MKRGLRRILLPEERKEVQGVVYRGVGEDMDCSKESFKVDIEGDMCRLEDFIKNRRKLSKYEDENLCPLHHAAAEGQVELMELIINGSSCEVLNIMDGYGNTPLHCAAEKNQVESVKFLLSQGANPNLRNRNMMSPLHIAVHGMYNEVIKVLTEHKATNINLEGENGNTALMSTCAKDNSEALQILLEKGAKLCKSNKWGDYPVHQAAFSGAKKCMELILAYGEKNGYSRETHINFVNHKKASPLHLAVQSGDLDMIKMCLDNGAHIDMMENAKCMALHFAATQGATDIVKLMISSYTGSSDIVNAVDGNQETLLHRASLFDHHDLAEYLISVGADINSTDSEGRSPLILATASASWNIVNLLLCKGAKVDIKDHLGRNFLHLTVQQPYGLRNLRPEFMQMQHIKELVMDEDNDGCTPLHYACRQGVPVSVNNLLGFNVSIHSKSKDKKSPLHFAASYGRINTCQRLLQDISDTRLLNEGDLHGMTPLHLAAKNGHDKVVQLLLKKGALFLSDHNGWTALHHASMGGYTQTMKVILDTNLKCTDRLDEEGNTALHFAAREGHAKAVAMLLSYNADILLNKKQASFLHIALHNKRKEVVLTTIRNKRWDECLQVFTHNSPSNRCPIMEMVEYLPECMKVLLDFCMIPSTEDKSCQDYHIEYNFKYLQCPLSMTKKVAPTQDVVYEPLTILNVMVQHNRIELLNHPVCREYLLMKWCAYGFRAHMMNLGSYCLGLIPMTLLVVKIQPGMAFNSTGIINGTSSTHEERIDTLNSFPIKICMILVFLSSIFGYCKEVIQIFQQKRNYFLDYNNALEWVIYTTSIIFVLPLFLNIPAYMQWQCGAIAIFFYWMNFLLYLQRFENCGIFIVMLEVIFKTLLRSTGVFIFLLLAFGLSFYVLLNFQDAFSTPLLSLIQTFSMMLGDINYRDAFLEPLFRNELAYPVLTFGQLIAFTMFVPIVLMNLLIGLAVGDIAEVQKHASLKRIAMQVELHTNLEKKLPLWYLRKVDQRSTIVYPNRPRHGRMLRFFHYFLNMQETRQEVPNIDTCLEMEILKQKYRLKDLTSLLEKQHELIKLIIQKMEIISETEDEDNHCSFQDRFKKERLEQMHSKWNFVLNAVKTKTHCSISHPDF

Target: T1, TRPA1 (Mus musculus, UniProt Q8BLA8)
T1 construct: expressed in transfected cells; host or cells: CHO cells cotransfected with bradykinin B2 receptor and TRPA1
Assay: Sensitization of the mechanical response of CHO cells cotransfected with bradykinin B2 receptor and TRPA1
Type: cell-based
Settings: 1 nM BK pre-treatment for 3 min

RPPGFSPFR [BK, bradykinin]
mechanical threshold after BK pre-pulse: −60 mmHg
